Results from patent publication US20210244791A1, “APPLICATION OF PEDF-DERIVED SHORT PEPTIDES IN TENDON HEALING” (BRIM Biotechnology, Inc., priority 2018, published 2021).
Some of these results come from one statement about several compounds together.

The chains behind the UniProt entries cited, without tags or fusion partners. Where a name states a change or a piece, a line headed by the entry shows the natural chain unless it says otherwise.
UniProt P36955: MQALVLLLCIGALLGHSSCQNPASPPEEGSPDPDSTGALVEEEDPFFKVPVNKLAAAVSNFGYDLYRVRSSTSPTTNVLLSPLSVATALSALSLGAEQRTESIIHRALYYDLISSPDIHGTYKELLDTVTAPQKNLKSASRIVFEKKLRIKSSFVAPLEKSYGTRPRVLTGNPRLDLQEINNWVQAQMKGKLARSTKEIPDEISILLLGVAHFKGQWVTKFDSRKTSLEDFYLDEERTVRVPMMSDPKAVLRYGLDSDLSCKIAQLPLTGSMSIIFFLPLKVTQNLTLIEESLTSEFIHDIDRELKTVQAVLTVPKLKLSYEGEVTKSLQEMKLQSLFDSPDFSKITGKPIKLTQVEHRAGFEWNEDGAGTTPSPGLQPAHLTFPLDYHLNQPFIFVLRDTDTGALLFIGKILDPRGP

What was measured:
injured Achilles tendon = experiment: Rat model of Achilles tendon injury, histology (H&E) and histopathological score; format: in vivo; conditions: 1 week postoperative; peptide/alginate gel; 0 = normal tendon, 15 = maximally abnormal; vehicle/alginate 12.7±0.6
Excerpt: Representative micrographs of the histopathological analysis by H&E staining. H&E-stained sections in higher magnification show uninjured tendon tissue with a relative scarcity of cells among the collagen fibers.
(A) Representative H&E-stained longitudinal sections in higher magnification show the nuclei morphologies in uninjured tendon tissue and injured tendon treated with vehicle/alginate and 29-mer/alginate for 1 week. (B) Histopathological scores. Total scores were determining by fiber structure, fiber arrangement, rounding of the nuclei, resident cell density and inflammation (infiltration of inflammatory cells, neovascularization and fatty deposits). Data are reported as mean±SE. *P<0.0005 versus vehicle/alginate-treated tendon; ^#P<0.05 versus 29-mer/alginate-treated tendon.
(§1) To investigate the effects of the 29-mer peptide on tendon healing, a rat model of Achilles tendon injury was established as reported by Orhan et al. (The effect of extracorporeal shock waves on a rat model of injury to tendon Achilles. A histological and biomechanical study. J. Bone Joint Surg. Br. 2004;.86(4):.613-618). Adult 10-week-old male Sprague-Dawley rats (initial body weight=312±11 g) were anesthetized by an intraperitoneal injection of xylazine (10 mg/kg). Then, the left tendo Achilles injury was created by full-thickness insertion of an 18-G needle through tendo Achilles 1 cm proximal to the calcaneum attachment site. This created a horizontal wound that was flanked by intact tendon tissue to prevent the retraction of severed ends. The skin incision was closed after the wound was irrigated with sterile saline. Treatments were applied to area around the tendon lesion by subcutaneous injection with 150 μl of alginate gel mixed with 100 μM 29-mer or DMSO vehicle (six rats per experimental condition).
The tendon and surrounding soft tissue were dissected. Specimens were fixed in a 4% paraformaldehyde (PFA) solution and then were embedded in paraffin blocks. Sections (5 μm in thickness) were longitudinally cut and stained with hematoxylin and eosin (H&E) or used for immunohistochemical examination. 36 sections per tendon were carefully prepared so as to include the most severely degenerated area. Images were captured using a Nikon Eclipse 80i microscope (Nikon Corporation, Tokyo, Japan) equipped with a Leica DC 500 camera (Leica Microsystems, Wetzlar, Germany). Four sections of each sample containing injured tendon tissues were selected and evaluated by two blinded observers to assess the tendon morphology according to a modified semi-quantitative grading score from 0 to 3 proposed by Chen et al. (Tendon derived stem cells promote platelet-rich plasma healing in collagenase-induced rat Achilles tendinopathy. Cell Physiol. Biochem., 2014; 34(6): 2153-68). The scores analyzed the fiber structure (0-3), fiber arrangement (0-3), rounding of the nuclei (0-3), resident cell density (0-3), and inflammation (0-3; infiltration of inflammatory cells, neovascularization and fatty deposits). According to this grading system, a perfectly normal tendon obtained a score of 0, whereas a score of 15 was assigned to maximally abnormal tendons.
To investigate the therapeutic effect of the 29-mer peptide on injured tendon, a rat model of Achilles tendon injury was established by full-thickness insertion of an 18-G needle through the tendon Achilles. […]

CD146-positive TSPC = experiment: CD146 immunostaining of TSPC in injured Achilles tendon; format: in vivo, rat; conditions: 1 week after wounding; peptide/alginate gel; vehicle/alginate 38.3±7.8
Procedure: (A) Representative CD146-stained longitudinal sections. (Original magnification×200). (B) The number of CD146-positive TSPC per 200×field of view on injured tendon sections. Data are reported as mean±SE. Total CD146^+ cells were evaluated from 6 sections/tendon specimen, with 3 rats in each group. *P<0.001 versus vehicle/alginate-treated tendon; #p <0.001 versus 29-mer/alginate-treated tendon.
as §1
Formalin-fixed, paraffin-embedded tendon specimens were deparaffinized in xylene and rehydrated in a graded series of ethanol concentrations. Slides were blocked with 10% goat serum for 60 min and then incubated with primary antibody against CD146 (1:50 dilution) at room temperature (RT) for 2 h. The slides were subsequently incubated with the appropriate peroxidase-labeled goat immunoglobulin (1:500 dilution; Chemicon, Temecula, Calif.) for 20 min and then incubated with chromogen substrate (3,3′-diaminobenzidine) for 2 min before counterstaining with hematoxylin.
CD146 is one of the TSPC markers. […] To test the mechanism of the 29-mer-induced tendon repair, CD146 immunostaining of TSPC located at injured tendon was measured, at 1 week after wounding. […] Thus, activation of TSPC expansion by the 29-mer treatment supports the speedy tendon wound healing.

| Substance | total histopathological score (injured Achilles tendon) | number of CD146-positive TSPC on injured tendon sections (CD146-positive TSPC) |
| --- | --- | --- |
| Q98A: 29-mer variant with single alanine replacement at glutamine-98 (SLGAEARTESIIHRALYYDLISSPDIHGT; UniProt P36955 93-121, looked up, variant Q98A) | 11.2˜13.7 | 40.5˜49.5 cells per 200× field |
| A96G: 29-mer variant with single glycine alteration at alanine-96 (SLGGEQRTESIIHRALYYDLISSPDIHGT; UniProt P36955 93-121, looked up, variant A96G) | 11.2˜13.7 | 40.5˜49.5 cells per 200× field |
| R106A: 29-mer variant with single alanine replacement at arginine-106 (SLGAEQRTESIIHAALYYDLISSPDIHGT; UniProt P36955 93-121, looked up, variant R106A) | 11.2˜13.7 | 40.5˜49.5 cells per 200× field |
| 1104A: 29-mer variant with single alanine replacement at isoleucine-104 (SLGAEQRTESIAHRALYYDLISSPDIHGT; UniProt P36955 93-121, looked up, variant I104A) | 11.2˜13.7 | 40.5˜49.5 cells per 200× field |
| 1103A: 29-mer variant with single alanine replacement at isoleucine-103 (SLGAEQRTESAIHRALYYDLISSPDIHGT; UniProt P36955 93-121, looked up, variant I103A) | 11.2˜13.7 | 40.5˜49.5 cells per 200× field |
